Data: patent publication US9408908B2, “Combination adjuvant formulation” (University of Saskatchewan, priority 2008, dated 2016)
Not every detail of the peptide structures is certain; ends, links or a residue may be inferred. No end group written: not given here.

Key:
human PBMC [1] = test: MCP-1 induction by triple adjuvant formulations (peptide, CpG 10103, PCPP) in human PBMC; type: cell-based; conditions: 24 hours, peptide 40 μg/ml, CpG 20 μg/ml, no PCPP, average of 4 biological replicates
Method: The effect of PCPP addition on chemokine induction by peptide-CpG 10103 complexes was assessed by the induction of MCP-1 in human PBMCs. Briefly, peptide-CpG complexes were formed as previously described and following incubation PCPP, with or without MgCl2 (pH 7.4), was added to the peptide-CpG complexes at various concentrations and incubated for 30 min at 37° C. Following incubation, human PBMCs were stimulated with the various formulations for 24 hours and levels of MCP-1 were measured by ELISA.

human PBMC [2] = test: Chemokine induction by host defense peptides in human PBMC (ELISA); type: cell-based; conditions: for Chemokine Induction MCP-1: 24 hour, ELISA
[3] = peptide concentration 100 μg/ml

## VQRWLIVWRIRK [Peptide 1002]
Human PBMC [1]
  MCP-1 Induction: 371 pg/mL
Human PBMC [2]; peptide concentration 20 μg/ml
  Chemokine Induction Gro-α: 1032 pg/mL
  Chemokine Induction MCP-3: 13 pg/mL
  Chemokine Induction MCP-1: 2472 pg/mL
Human PBMC [2]; [3]
  Chemokine Induction Gro-α: 2117 pg/mL
  Chemokine Induction MCP-3: 141 pg/mL
  Chemokine Induction MCP-1: 5566 pg/mL
